Article PMC11662004 (Communications Chemistry, 2024)

Experiment: general procedure: Fmoc solid-phase peptide synthesis; Rink amide MBHA
Details: whole synthesis, 220 nm, scale 100 μmole

In the case of “PEPTIDE1{[CH2CO].[dY].L.I.Y.A.Y.Y.T.W.W.E.H.S.C.[am]}$PEPTIDE1,PEPTIDE1,1:R3-15:R3$$$V2.0”, the “final HPLC purity” value is reported as greater than 99.0%.

HELM strings list residues between dots; [ac] is acetyl, [am] amide, other brackets name non-standard units.
